This passage reports binding results from paper doi:10.1101/2025.02.19.638559, “The architecture, assembly, and evolution of a complex flagellar motor” (bioRxiv, 2025).

Results are given in words; binding and its absence hold for the method and conditions named. Some binding calls cover weakened binding; strength is not graded here.

Assay [1] concerns the target PflB (bacterial two-hybrid fusion of Fig. 2j) (C. jejuni 81-176). Kind of assay: two-hybrid; bacterial two hybrid (BTH): T25 and T18 fusions co-transformed into E. coli BTH101; spotted on LB plates with X-Gal and 0.5 mM IPTG, 30 °C, 24 h.
Assay [2] addresses T1, PflB_(113–820) (C. jejuni 81-176).
T1 sequence: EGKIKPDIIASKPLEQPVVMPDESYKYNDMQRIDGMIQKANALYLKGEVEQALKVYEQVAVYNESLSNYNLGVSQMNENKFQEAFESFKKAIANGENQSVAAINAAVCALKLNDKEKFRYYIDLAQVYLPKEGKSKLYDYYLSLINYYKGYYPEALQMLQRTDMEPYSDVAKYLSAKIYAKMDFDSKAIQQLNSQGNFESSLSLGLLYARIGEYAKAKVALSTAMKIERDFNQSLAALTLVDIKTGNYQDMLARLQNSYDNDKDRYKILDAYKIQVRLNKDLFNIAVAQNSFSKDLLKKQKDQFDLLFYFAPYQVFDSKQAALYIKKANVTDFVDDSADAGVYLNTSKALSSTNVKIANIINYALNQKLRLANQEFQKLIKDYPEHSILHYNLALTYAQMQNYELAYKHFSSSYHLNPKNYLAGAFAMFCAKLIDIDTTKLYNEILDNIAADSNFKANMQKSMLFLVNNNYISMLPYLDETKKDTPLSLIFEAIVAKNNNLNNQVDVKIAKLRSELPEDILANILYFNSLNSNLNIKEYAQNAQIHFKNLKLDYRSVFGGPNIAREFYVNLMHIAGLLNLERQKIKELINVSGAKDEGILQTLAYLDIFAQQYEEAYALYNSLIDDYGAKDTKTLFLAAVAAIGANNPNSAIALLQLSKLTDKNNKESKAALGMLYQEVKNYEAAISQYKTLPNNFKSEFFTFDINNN
The assay is described as follows: cryo-EM structure; single-particle cryo-EM of the purified PflA16-788 and PflB113-820 complex at 0.4 mg/ml; 3.23 Å; both purified.

For “PflA (bacterial two-hybrid fusion of Fig. 2j) (from UniProt Q46092 1-788)”, the binding result in assay [1] was “binds”.

B1: PflA_(16–788) of the purified PflA_(16–788) and PflB_(113–820) complex (domain or fragment)
chain: AFELVLNTGRENNQAFAVLHASNDLEFTCQKFITEAKVHFECDIVGMVDNKLKDQSFSAFDLKFIQEAQKIKMIILPKIQARMFDTSQNIYIDKELSSSSSHKSKAFTFIFTPELAPIKDYDGLDFNINFPHESLPYVGALDLNSDPVVIPQSADINTYLRIKKEYDKANYNQVVIDAQNAINRYRGSIFTSEFILYKLRAQNKLYTQDPSMRDQQILEKMIDDAKNWTRTFTSDKNFSEVLHIMLRTYIALAQRADVEYTMSILDNEQPNNYFTQLSKLDYADYIYNLNEKEKAVNIYENTYFNTKNLDLAARAAMSLAKNLLSNEQVNKAIEYINTILKANPEYFGKDIPRSLELAKLFNQKGQFDISASIYEDAFAKMSKLDPSYEETLKDLALVLSHANRSSDAKKYLDLYMDDYLDGKYLDEIKKASDEVFFALGDNNASFLHQRYTDLMKQYANKDENIANKALDEDVALYYKEGNFSAILAYKDLIESKKIPNATQFLEKAAINDLKNAIKADNCINAANIFMRFSAYDIGQKIENKKQMLACLIRTSNVEQALDYIDKNYNEDSIFYGLQKASILFDNKQYPQVIKISKDIANSRILKSDDENFKAYYLQFLSLLRLNDYNQAIKILQILESFPMNFSMVEAYDALLSYANDHNMQTTILTYAPKAIDYQNFKGINLFSPNLEFIYLDALTKINKNEESLAVLTDLLKLKLSDEDRARALYIQALTYERMQNIQAEKESLKQCLEIKSASNWQNLCKSKNQILNQ
notes: PflA of C. jejuni 81-176, residues 16-788; only 16-163 (β-sandwich domain and flexible loop) are resolved in the cryo-EM structure; PflA16-788 was cloned both in pET22b (C-terminal 6×His) and in pET26b (C-terminal Strep-tag); also called PflA_(16–163) (the part resolved in the map)
In the case of B1, in assay [2], the binding result is on record as “binds”.
